## Primary screen of a compound library

Chains of the proteins cited; added tags and fusions are not shown.
UniProt P9WPC5, whole entry: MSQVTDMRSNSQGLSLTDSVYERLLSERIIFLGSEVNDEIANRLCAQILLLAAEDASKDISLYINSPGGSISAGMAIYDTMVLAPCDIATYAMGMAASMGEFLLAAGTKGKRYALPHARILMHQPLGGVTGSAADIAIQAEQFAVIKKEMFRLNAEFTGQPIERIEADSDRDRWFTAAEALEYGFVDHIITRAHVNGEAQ
UniProt P9WPC3, whole entry partner: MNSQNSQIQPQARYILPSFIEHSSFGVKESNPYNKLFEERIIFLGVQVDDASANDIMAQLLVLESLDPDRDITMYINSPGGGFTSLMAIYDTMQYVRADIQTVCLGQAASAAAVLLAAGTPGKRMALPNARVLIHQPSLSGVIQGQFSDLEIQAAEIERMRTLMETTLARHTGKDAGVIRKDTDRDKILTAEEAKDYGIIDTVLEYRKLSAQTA
UniProt I6X8D2, whole entry: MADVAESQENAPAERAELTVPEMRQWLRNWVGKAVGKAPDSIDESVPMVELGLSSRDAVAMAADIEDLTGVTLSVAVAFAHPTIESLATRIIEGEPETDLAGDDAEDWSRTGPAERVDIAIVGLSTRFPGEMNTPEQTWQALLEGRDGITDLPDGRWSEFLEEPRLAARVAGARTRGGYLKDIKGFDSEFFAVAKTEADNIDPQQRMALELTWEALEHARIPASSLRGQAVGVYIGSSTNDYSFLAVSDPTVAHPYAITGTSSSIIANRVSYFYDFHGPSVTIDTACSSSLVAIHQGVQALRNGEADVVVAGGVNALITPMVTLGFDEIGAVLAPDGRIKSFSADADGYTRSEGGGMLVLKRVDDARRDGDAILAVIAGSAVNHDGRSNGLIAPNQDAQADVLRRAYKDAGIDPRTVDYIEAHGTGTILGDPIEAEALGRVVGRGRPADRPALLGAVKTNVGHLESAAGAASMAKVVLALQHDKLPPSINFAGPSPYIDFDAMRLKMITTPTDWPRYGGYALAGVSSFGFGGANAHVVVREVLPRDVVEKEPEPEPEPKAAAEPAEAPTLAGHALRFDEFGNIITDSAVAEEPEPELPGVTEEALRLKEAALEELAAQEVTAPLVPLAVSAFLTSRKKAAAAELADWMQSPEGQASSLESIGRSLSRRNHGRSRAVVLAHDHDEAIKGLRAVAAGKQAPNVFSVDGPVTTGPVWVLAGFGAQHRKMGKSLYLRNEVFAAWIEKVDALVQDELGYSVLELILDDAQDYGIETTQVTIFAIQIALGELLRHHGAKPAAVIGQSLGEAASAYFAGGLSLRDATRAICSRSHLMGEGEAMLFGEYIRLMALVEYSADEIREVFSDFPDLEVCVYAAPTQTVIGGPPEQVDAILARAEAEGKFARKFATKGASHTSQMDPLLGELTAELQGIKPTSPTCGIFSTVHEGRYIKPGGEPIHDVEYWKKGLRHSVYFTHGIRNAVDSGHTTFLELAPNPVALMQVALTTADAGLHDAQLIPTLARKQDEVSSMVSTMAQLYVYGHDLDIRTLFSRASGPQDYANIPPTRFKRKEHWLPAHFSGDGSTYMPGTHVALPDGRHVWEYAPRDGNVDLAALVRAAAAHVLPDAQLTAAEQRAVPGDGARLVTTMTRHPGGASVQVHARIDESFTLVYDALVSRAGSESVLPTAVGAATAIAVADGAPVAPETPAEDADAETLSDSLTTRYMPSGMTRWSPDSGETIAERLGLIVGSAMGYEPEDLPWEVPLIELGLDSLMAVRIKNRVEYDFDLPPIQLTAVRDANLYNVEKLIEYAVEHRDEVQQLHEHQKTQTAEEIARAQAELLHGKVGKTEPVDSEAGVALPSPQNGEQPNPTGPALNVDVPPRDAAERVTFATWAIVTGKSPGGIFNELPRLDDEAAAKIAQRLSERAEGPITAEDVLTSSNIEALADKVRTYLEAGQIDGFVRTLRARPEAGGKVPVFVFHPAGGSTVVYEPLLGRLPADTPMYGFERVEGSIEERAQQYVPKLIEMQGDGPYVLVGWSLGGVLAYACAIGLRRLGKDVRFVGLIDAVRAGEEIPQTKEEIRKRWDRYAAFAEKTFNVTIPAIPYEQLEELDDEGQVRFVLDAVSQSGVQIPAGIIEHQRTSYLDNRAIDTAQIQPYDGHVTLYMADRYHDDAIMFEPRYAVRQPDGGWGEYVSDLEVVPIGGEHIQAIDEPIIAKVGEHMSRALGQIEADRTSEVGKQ

Results are given as percent effect. How 0% and 100% were set is not recorded. Most values in the screen are low, and negative values occur. The compounds are a random part of those screened. A dash means the value is not listed here; it may have been measured.

ClpP1P2: 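ClpP1P2, Mycobacterium tuberculosis (UniProt P9WPC5 and UniProt P9WPC3). Protease assay of ClpP1P2, read by the AMC dye that it sets free. Tested at 50 µM. Direction is inferred from only a few compounds that gave an IC50; most scored high, so higher reads as stronger inhibition. Most other retested compounds had strongly negative values. Size under these conditions: about 69,000 compounds, about 10 of them at 50% or above in at least one test.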
Pks13 thioesterase: 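Enzyme assay of the thioesterase domain of polyketide synthase 13; the read-out is not stated. Target: Polyketide synthase Pks13, Mycobacterium tuberculosis (UniProt I6X8D2). Concentration: 30 µM. Higher reads as stronger inhibition (inferred from which compounds were picked for retests). Of about 67,000 compounds tested this way, about 300 (0.46%) reached 50% or more in at least one test.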

| compound | ClpP1P2 | Pks13 thioesterase |
|---|---|---|
| `Fc1cccc(CN2CCC3(CCN3c3ncccn3)C2)c1` (centres undefined) | 0.03669 | - |
| `Cn1cnc(NC(=O)C2CC(=O)N(c3cccc(F)c3)C2)n1` (centres undefined) | 8.355 | -20.11 |
| `O=C(NCC1OCCc2cn(CC3CC3)nc21)c1ccsc1` (centres undefined) | -2.603 | -16.73 |
| `CN1CCN([C@H]2CCN(C(=O)c3cc(Cl)cn3C)C[C@H]2CCCO)CC1` | -4.867 | -5.5 |
| `O=c1[nH]c2cc3c(cc2cc1CN1CCCC1c1ccccn1)OCO3` (centres undefined) | -46.51 | 78.56 |
| `CCOCC1CN(CC2CCC2)Cc2nnn(CC3CC3)c21` (centres undefined) | 12.95 | -37.01 |
| `CC(=O)NCC(=O)N1CCCC2(CCC(=O)N(CCc3c[nH]cn3)C2)C1` (centres undefined) | 2.773 | 14.68 |
| `CCN1CC(C(=O)NCCc2csc(-c3ccncc3)n2)CCC1=O` (centres undefined) | -16.11 | -6.002 |
| `CNc1nc2c(s1)C(c1ccccc1F)CC(=O)N2` (centres undefined) | -101.3 | 8.693 |
| `CC(=O)N1CCCCC1c1cc(C(=O)N2CCOCC2)[nH]n1` (centres undefined) | 9.741 | -38.14 |
| `COCCCNC(=O)c1cn(C(C)C)cc2c(=O)[nH]nc1-2` | 2.561 | 6.063 |
| `O=C1CC(C(=O)O)C2(CCN(C(=O)Nc3ccccc3Cl)CC2)N1` (centres undefined) | 2.083 | -36.44 |
| `CC(=O)N1CCC2(CC1)c1ncc(-c3ccc(F)cc3)n1CCN2C` | -14.77 | -8.751 |
| `O=C(c1ccno1)N1CCc2ncnc(-c3ccncc3)c2CC1` | -19.25 | -6.628 |
| `O=C(CCN1CCCO1)NC1CCCN(CC2CCCCC2)C1` (centres undefined) | -12.83 | -7.174 |
| `Cc1ccsc1CN(CCCO)Cc1nc2ccccc2[nH]1` | -10.69 | 15.35 |
| `O=C(NCC1CCS(=O)(=O)C1)N(Cc1ccco1)C1CC1` (centres undefined) | 11.38 | -2.177 |
| `O=C1NCC(c2ccc(F)cc2)Cc2[nH]c(CCN3CCCC3)nc21` (centres undefined) | -34.5 | -20.31 |
| `Cc1noc(CCNS(=O)(=O)N2CCCC2c2ccc(C)o2)n1` (centres undefined) | -23.14 | 2.196 |
| `Cc1nc(N2CCN(C(=O)c3ccc(O)cc3)CC2)c2cnn(C)c2n1` | 7.676 | -5.586 |
| `CC(Cn1cccn1)NCc1csc(COc2ccccc2)n1` (centres undefined) | -37.29 | -1.919 |
| `CC(C)CCN1CCN(C(=O)c2c[nH]c(=O)[nH]2)CC1` | -0.1553 | -15.21 |
| `COc1cccc(-c2cnc(C3CCNCC3)cn2)c1` | 3.343 | 0.6827 |
| `CCC1CN(C(=O)CN2CCN(c3nccc(OC)n3)CC2)CCO1` (centres undefined) | -23.41 | -3 |
| `CSCCCN1CCN(c2ccc(Cl)cn2)CC1` | -5.683 | -3.163 |
| `Cc1nc(NC(=O)CN2CCOC(Cn3cccn3)C2)sc1C` (centres undefined) | -9.382 | -20.92 |
| `COCCNS(=O)(=O)c1cccc2c1CN(C(=O)c1cnccn1)CC2` | -6.77 | 1.845 |
| `CN(CCC#N)C(=O)CN(C1CC1)C1CCc2ccccc21` (centres undefined) | 0.8488 | -15.01 |
| `Cn1cc(CN2C[C@@H](F)[C@@H](OCc3nc4cnccc4[nH]3)C2)cn1` | -10.12 | -13.18 |
| `CN(CCNC(=O)Nc1nccs1)Cc1ccc(F)cc1` | -8.86 | -2.118 |
| `CN(Cc1ccc(F)cc1)CC1(O)CCN(C(=O)c2ccccc2)C1` (centres undefined) | -6.159 | -38.82 |
| `O=C1CCCN1CCN1CCCCC1Cn1cccn1` (centres undefined) | -4.516 | - |
| `CC(C)c1nn(C)c(N(C)C)c1CNC1CCN(CC2CC2)CC1` | -7.909 | 8.36 |
| `CCN(CC)Cc1ccc(C(=O)N2CCCC2Cn2cccn2)cc1` (centres undefined) | -18.57 | -17.57 |
| `CCN(Cc1noc(C)n1)C(=O)C(c1ccc(C)cc1)N(C)C` (centres undefined) | 2.001 | -18.33 |
| `CC(NC(=O)CCn1c(=O)oc2ccccc21)c1ccccn1` (centres undefined) | -14.99 | -3.062 |
| `O=C(CN1CCCC(c2ccn[nH]2)C1)Nc1nncs1` (centres undefined) | -5.427 | -6.24 |
| `O=C(Cn1cccn1)N1CCC(c2nnc(C(F)(F)F)o2)CC1` | -4.42 | 36.06 |
| `Cc1nc([C@@H]2C[C@@H]3CCN(C(=O)c4occc4C)C[C@H]3O2)no1` | 4.439 | -5.376 |
| `CCC(=O)N1CCCC(c2nc(N(C)C)ncc2-c2ccc(F)cc2)C1` (centres undefined) | -20.43 | 18.16 |
| `O=C1CCCN1Cc1ccc(C(=O)N2CCCC2c2cccs2)cc1` (centres undefined) | -6.926 | -7.441 |
| `CN1CCN(Cc2cccnc2)Cc2cccnc21` | -6.156 | -4.577 |
| `NC(=O)CNC(c1ccccc1)c1ccc(OC(F)F)cc1` (centres undefined) | 19.17 | -15.82 |
| `CC(C)CN1C[C@H]2CCN(Cc3cccnc3)CC[C@H]2S1(=O)=O` | 3.087 | -25.69 |
| `O=C(NCCN1CCCCC1)c1cccc(Cl)c1Cl` | -2.438 | -4.837 |
| `CCn1cc(NC(=O)C2CCN(CCOC(C)C)CC2)cn1` | 1.043 | -6.329 |
| `COc1cccc(CN2C[C@@H]3COC[C@]3(COCc3ccncc3)C2)c1` | 0.8783 | -33.64 |
| `CCCNC(=O)COc1ccc(C)cn1` | -8.287 | -19.36 |
| `CC(=O)N1CCCC1C(=O)N1CCC(=Cc2cccc(F)c2)CC1` (centres undefined) | -11.7 | -12.73 |
| `c1cc(CN2CCN3C[C@H](Oc4cncnc4)C[C@H]3C2)ccn1` | -8.744 | -14.75 |

From ChEMBL document CHEMBL3988442, “University of Dundee, Small-Polar-MMV Screening Library” (2021).